{
  "source": "paper PMC13321232",
  "key": {"[1]": {"target": "T1, ER-HA (Arabidopsis thaliana) (UniProt Q42371)", "T1 sequence": "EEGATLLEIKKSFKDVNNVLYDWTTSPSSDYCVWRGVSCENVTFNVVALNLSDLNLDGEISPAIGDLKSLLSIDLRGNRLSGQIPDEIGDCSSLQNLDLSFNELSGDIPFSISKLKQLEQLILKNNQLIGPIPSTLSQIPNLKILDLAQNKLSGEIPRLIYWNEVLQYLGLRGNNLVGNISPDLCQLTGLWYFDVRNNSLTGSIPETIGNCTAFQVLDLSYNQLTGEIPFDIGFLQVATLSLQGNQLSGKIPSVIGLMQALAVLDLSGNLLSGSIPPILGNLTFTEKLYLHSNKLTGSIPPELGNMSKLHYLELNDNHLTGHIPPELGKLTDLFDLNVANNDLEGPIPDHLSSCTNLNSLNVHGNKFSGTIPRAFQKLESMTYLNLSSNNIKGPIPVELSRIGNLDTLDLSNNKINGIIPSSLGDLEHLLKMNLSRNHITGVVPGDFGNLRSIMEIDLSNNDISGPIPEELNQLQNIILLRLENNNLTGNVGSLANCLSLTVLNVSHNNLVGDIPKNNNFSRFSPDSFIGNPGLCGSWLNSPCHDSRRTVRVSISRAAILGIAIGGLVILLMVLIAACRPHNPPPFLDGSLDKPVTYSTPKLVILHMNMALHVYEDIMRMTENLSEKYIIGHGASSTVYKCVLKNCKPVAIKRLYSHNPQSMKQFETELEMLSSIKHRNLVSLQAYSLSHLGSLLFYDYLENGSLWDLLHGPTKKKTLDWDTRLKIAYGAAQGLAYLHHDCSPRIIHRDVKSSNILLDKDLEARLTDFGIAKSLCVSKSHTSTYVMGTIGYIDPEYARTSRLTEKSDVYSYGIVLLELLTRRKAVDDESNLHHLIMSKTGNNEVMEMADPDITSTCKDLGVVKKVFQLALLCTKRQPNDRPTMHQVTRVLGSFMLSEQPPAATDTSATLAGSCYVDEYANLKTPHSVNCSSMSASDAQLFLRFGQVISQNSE", "assay": "co-IP; FLAG- and HA-tagged proteins coinfiltrated into Nicotiana leaves; 10 µM MG132 for 6 h; lysis in 50 mM Tris-HCl pH 7.6, 150 mM NaCl, 1% NP-40, 0.1% SDS; anti-HA or anti-FLAG (anti-DYKDDDDK) magnetic beads, 4 °C; western blot"}, "[2]": {"target": "T2, ERL2-HA (Arabidopsis thaliana) (UniProt Q6XAT2)", "T2 sequence": "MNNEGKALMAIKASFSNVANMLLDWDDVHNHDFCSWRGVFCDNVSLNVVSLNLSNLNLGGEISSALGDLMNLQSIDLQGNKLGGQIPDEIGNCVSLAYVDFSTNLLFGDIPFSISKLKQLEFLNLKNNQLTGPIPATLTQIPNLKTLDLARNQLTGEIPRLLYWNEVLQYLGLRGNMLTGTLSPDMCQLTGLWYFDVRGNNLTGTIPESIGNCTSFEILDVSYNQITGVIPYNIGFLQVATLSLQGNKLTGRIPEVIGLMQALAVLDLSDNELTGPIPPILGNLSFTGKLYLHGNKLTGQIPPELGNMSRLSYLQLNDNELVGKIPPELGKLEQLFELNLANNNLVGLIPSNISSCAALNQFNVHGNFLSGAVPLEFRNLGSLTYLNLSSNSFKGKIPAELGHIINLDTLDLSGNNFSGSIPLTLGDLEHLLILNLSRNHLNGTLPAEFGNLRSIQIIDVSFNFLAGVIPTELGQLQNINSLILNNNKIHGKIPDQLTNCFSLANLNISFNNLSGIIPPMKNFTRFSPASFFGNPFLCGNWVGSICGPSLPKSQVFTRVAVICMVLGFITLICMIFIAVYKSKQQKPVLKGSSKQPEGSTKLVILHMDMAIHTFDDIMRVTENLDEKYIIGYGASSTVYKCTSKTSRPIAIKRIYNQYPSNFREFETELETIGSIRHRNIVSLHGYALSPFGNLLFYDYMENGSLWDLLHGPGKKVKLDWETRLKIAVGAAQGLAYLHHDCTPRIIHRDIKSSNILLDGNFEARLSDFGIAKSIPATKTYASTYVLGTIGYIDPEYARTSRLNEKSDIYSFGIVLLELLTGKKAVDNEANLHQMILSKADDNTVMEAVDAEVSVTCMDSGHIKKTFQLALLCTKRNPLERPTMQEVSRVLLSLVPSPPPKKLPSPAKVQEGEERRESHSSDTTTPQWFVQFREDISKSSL", "assay": "co-IP; FLAG- and HA-tagged proteins coinfiltrated into Nicotiana leaves; 10 µM MG132 for 6 h; lysis in 50 mM Tris-HCl pH 7.6, 150 mM NaCl, 1% NP-40, 0.1% SDS; anti-HA or anti-FLAG (anti-DYKDDDDK) magnetic beads, 4 °C; western blot"}, "[3]": {"target": "T1, ER-HA (Arabidopsis thaliana)", "assay": "co-IP; FLAG- and HA-tagged proteins cotransfected into Arabidopsis protoplasts from root cell suspension cultures; 10 µM MG132 for 6 h; lysis in 50 mM Tris-HCl pH 7.6, 150 mM NaCl, 1% NP-40, 0.1% SDS; anti-FLAG (anti-DYKDDDDK) or anti-HA magnetic beads, 4 °C; western blot"}, "[4]": {"target": "T3, ERL1-HA (Arabidopsis thaliana) (UniProt C0LGW6)", "T3 sequence": "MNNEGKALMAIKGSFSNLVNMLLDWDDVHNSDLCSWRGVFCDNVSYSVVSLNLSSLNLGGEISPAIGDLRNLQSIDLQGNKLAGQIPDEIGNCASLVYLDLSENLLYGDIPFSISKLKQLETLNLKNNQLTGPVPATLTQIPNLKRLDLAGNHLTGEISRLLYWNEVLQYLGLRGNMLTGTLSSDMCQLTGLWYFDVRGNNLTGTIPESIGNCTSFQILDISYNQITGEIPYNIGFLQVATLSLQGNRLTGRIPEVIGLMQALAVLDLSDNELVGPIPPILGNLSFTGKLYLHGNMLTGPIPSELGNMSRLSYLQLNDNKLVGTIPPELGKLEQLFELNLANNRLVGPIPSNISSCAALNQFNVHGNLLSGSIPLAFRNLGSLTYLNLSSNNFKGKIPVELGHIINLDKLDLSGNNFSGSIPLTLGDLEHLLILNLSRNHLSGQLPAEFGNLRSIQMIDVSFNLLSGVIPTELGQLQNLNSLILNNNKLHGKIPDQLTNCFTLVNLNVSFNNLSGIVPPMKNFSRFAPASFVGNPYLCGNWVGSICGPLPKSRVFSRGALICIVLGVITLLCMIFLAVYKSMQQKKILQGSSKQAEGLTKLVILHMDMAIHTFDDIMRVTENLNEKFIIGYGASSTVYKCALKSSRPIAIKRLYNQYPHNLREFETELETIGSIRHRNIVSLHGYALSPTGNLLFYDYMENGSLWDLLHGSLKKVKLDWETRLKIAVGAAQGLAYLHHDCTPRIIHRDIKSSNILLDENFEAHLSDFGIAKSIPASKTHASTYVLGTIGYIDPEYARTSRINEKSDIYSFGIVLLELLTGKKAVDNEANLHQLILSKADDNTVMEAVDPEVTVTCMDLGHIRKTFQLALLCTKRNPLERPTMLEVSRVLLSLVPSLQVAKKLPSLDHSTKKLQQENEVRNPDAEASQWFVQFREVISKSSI", "assay": "co-IP; FLAG- and HA-tagged proteins cotransfected into Arabidopsis protoplasts from root cell suspension cultures; 10 µM MG132 for 6 h; lysis in 50 mM Tris-HCl pH 7.6, 150 mM NaCl, 1% NP-40, 0.1% SDS; anti-FLAG (anti-DYKDDDDK) or anti-HA magnetic beads, 4 °C; western blot"}, "[5]": {"target": "T2, ERL2-HA (Arabidopsis thaliana)", "assay": "co-IP; FLAG- and HA-tagged proteins cotransfected into Arabidopsis protoplasts from root cell suspension cultures; 10 µM MG132 for 6 h; lysis in 50 mM Tris-HCl pH 7.6, 150 mM NaCl, 1% NP-40, 0.1% SDS; anti-FLAG (anti-DYKDDDDK) or anti-HA magnetic beads, 4 °C; western blot"}},
  "note": "These are yes or no findings as the source states them, for the method shown. In cells and extracts the contact can be indirect. Some results given as binding are weak or reduced against the parent protein; the word gives no strength. Where a sequence is shown, tags or fusion partners need not be part of it.",
  "data": [
    {"binder": "PXY-FLAG (plant construct) (receptor, UniProt Q9FII5 30-1041) LKFSPQLLSLLSLKTSLSGPPSAFQDWKVPVNGQNDAVWCSWSGVVCDNVTAQVISLDLSHRNLSGRIPIQIRYLSSLLYLNLSGNSLEGSFPTSIFDLTKLTTLDISRNSFDSSFPPGISKLKFLKVFNAFSNNFEGLLPSDVSRLRFLEELNFGGSYFEGEIPAAYGGLQRLKFIHLAGNVLGGKLPPRLGLLTELQHMEIGYNHFNGNIPSEFALLSNLKYFDVSNCSLSGSLPQELGNLSNLETLFLFQNGFTGEIPESYSNLKSLKLLDFSSNQLSGSIPSGFSTLKNLTWLSLISNNLSGEVPEGIGELPELTTLFLWNNNFTGVLPHKLGSNGKLETMDVSNNSFTGTIPSSLCHGNKLYKLILFSNMFEGELPKSLTRCESLWRFRSQNNRLNGTIPIGFGSLRNLTFVDLSNNRFTDQIPADFATAPVLQYLNLSTNFFHRKLPENIWKAPNLQIFSASFSNLIGEIPNYVGCKSFYRIELQGNSLNGTIPWDIGHCEKLLCLNLSQNHLNGIIPWEISTLPSIADVDLSHNLLTGTIPSDFGSSKTITTFNVSYNQLIGPIPSGSFAHLNPSFFSSNEGLCGDLVGKPCNSDRFNAGNADIDGHHKEERPKKTAGAIVWILAAAIGVGFFVLVAATRCFQKSYGNRVDGGGRNGGDIGPWKLTAFQRLNFTADDVVECLSKTDNILGMGSTGTVYKAEMPNGEIIAVKKLWGKNKENGKIRRRKSGVLAEVDVLGNVRHRNIVRLLGCCTNRDCTMLLYEYMPNGSLDDLLHGGDKTMTAAAEWTALYQIAIGVAQGICYLHHDCDPVIVHRDLKPSNILLDADFEARVADFGVAKLIQTDESMSVVAGSYGYIAPEYAYTLQVDKKSDIYSYGVILLEIITGKRSVEPEFGEGNSIVDWVRSKLKTKEDVEEVLDKSMGRSCSLIREEMKQMLRIALLCTSRSPTDRPPMRDVLLILQEAKPKRKTVGDNVIVVGDVNDVNFEDVCSVDVGHDVKCQRIGV", "values": [
      {"measurement": "binding", "setting": "[1]", "result": "binds"},
      {"measurement": "binding", "setting": "[2]", "result": "binds"},
      {"measurement": "binding", "setting": "[3]", "result": "binds"},
      {"measurement": "binding", "setting": "[4]", "result": "no binding"},
      {"measurement": "binding", "setting": "[5]", "result": "binds"}
    ]}
  ]
}
